Test results from publication PMC6815954 (Theranostics, 2019).
HELM strings list residues between dots; [ac] is acetyl, [am] amide, other brackets name non-standard units.

Test: peptide synthesis
Conditions: conjugation step

PEPTIDE1{[ac].D.E.V.D.[Cys(StBu)].[Pra(AmBF3)].[CBT]}$$$$V2.0
conjugation yield: 72%
